Data reported in US20030087913A1 (Schering AG, priority 2001, published 2003).

Assays:
[1] = Measurement of the active ingredient release (one-compartment method, vane-stirrer apparatus, USP XXIV); assay type: physicochemical; settings: pH 6.8

## C[C@@H]1CN(Cc2ccc(F)cc2)CCN1C(=O)COc1ccc(Cl)cc1NC(N)=O.O=S(=O)(O)O [piperazine urea-hydrogen sulfate, (2R)-1-((4-chloro-2-(ureido)phenoxy)methyl)carbonyl-2-methyl-4-(4-fluorobenzyl)piperazine hydrogen sulfate]
physchem; pH 1, simulated gastric fluid
  solubility: ~5000 µg/mL
physchem; pH 6.35, aqueous buffer
  solubility: ~150 µg/mL
physchem; pH 6.8, aqueous buffer
  solubility: ~100 µg/mL
[1]
  effect of addition of the surfactant SDS on the release: only in a slight increase in the release
